From paper PMC10454820
No constants are given. Whether binding was seen depends on the method and setting. In cells and extracts the contact can be indirect. Some entries that bind do so weakly or less than the wild type.

Protein sequences, listed by entry. Tags and fused reporters are not part of them.
UniProt P70658: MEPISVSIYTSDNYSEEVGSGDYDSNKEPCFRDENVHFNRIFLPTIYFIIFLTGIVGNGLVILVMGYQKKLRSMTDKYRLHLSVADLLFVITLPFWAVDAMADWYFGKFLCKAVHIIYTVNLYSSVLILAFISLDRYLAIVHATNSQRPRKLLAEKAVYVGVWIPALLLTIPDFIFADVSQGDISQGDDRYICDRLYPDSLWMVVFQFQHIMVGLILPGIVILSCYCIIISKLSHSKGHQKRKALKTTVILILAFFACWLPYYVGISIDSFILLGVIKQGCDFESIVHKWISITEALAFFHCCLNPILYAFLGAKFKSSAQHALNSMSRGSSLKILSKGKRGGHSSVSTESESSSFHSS
UniProt Q9QUI0: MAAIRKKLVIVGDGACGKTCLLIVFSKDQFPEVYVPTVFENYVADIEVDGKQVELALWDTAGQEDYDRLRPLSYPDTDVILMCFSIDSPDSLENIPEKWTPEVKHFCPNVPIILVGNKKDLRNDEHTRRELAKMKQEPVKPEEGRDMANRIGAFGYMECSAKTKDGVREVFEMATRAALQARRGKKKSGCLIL
UniProt P60766: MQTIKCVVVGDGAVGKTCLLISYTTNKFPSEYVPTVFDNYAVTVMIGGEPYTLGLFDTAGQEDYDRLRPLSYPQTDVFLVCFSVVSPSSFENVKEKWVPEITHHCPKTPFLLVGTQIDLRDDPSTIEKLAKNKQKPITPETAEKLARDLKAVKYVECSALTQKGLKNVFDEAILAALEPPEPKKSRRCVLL

Molecular target: C-X-C motif chemokine receptor 4 (mouse (endogenous in MEPM cells)) (UniProt P70658)
Test: co-IP; anti-CXCR4 coprecipitates from MEPM cell lysate (Pierce IP Lysis Buffer, 800 ug protein, Protein A/G beads, antibody overnight at 4 °C, four washes), immunoblot with anti-RAC1, anti-CDC42, anti-RHOA

ras homolog family member A (from UniProt Q9QUI0 1-193)
binding: binds

cell division cycle 42 (from UniProt P60766 1-191)
binding: binds
